## Primary screen of a compound library

Data taken from ChEMBL document CHEMBL3988442, “University of Dundee, Small-Polar-MMV Screening Library” (2021).

Values are the deposited “Percent Effect”, in %.
How 0% and 100% were set is not recorded. Most values in the screen are low, and negative values occur.
The compounds are a random part of those screened.
A dash means the value is not listed here; it may have been measured.

Mtb growth Cornell: 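Whole-cell assay for inhibitors of Mycobacterium tuberculosis growth, labelled Cornell in the record; the read-out is not stated. The concentration is filed as 10 mM, unlikely as a test dose, so the dose is not known. The record gives no direction; compounds strong in two other growth screens of this library score well above the rest, so higher reads as stronger inhibition. Of about 53,000 compounds tested this way, about 900 (1.7%) reached 50% or more in at least one test.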
Mtb heat-shock: 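Assay on Mycobacterium tuberculosis, filed only as a heat shock assay from Cornell; the read-out is not stated. The concentration is filed as 10 mM, unlikely as a test dose, so the dose is not known. The record gives no direction; compounds that gave an IC50 in retests scored well above the rest, so higher reads as stronger inhibition. About 69,000 compounds were tested under these conditions; 1.4% (about 930) showed 50% or more at least once.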

Result for CCCc1nc(C)c(C(=O)NCCNc2ncccc2C#N)s1 was Mtb heat-shock: -2.505%.
Result for Cc1nccc(N2C[C@@H](CN3CCCC3)[C@@H](CO)C2)n1 was Mtb heat-shock: -1.633%.
Result for CN(Cc1n[nH]c2c1CCCCC2)C(=O)c1cc(-c2cccn2C)n[nH]1 was Mtb growth Cornell: 48.35%; Mtb heat-shock: 32.7%.
Result for c1ccc(-c2cc(CN3CCCC(Cn4cncn4)C3)on2)cc1 (stereo not given) was Mtb heat-shock: -1.952%.
Result for COc1cc(CNC(C)Cn2cccn2)cc2c1OCCO2.Cl (stereo not given) was Mtb growth Cornell: -46.44%; Mtb heat-shock: -6.907%.
Result for CCN(Cc1c(C)nn(CC)c1C)S(=O)(=O)c1cn(C)nc1C was Mtb growth Cornell: 22.49%; Mtb heat-shock: 14.15%.
Result for Cn1ccnc1C(=O)NCc1cc(=O)n2c(n1)CN(CC1CC1)CCC2 was Mtb growth Cornell: -23.39%; Mtb heat-shock: 18.78%.
Result for COCc1nnc(C(=O)N2CCCC(O)C2)o1 (stereo not given) was Mtb growth Cornell: -16.94%; Mtb heat-shock: -9.712%.
Result for NS(=O)(=O)c1ccc(F)c(C(=O)NCCSC2CCCCC2)c1 was Mtb growth Cornell: -4.875%; Mtb heat-shock: 20.29%.
Result for CCN(CC)CC[C@H]1CN(C(=O)CC(C)(C)C)CC[C@H]1CC(=O)O was Mtb heat-shock: 3.694%.
Result for CN(CCN1CCCCCC1)Cc1cnc(N)nc1 was Mtb growth Cornell: -17.66%; Mtb heat-shock: -14.02%.
Result for CCc1nc(C)c(CN2CCCC(c3nn(C)c(=O)n3CC)C2)[nH]1 (stereo not given) was Mtb heat-shock: 12.52%.
Result for O=C(Cc1ccc2c(c1)CCO2)N1CCN(c2ccccn2)CC1 was Mtb heat-shock: -13.62%.
Result for CCN1CCN(C(C)CNC(=O)Nc2nc3ccccc3s2)CC1 (stereo not given) was Mtb heat-shock: -15.54%.
Result for Cc1nc2ccc(Cl)cn2c1CN1CCN(S(=O)(=O)N2CCCC2)CC1 was Mtb growth Cornell: 13.87%; Mtb heat-shock: 5.805%.
Result for Cc1ocnc1C(=O)N1CC[C@@H](O)[C@@H](O)[C@H](N2CCC(F)(F)CC2)C1 was Mtb growth Cornell: 17.93%; Mtb heat-shock: -2.696%.
Result for NC(=O)[C@H]1CCCN(c2nccc(-c3c[nH]nc3-c3cccnc3)n2)C1 was Mtb growth Cornell: -3.382%; Mtb heat-shock: 6.881%.
Result for COc1cc2c(cc1OC)S(=O)(=O)N(Cc1cccc(C)c1)C2=O was Mtb growth Cornell: 32.41%; Mtb heat-shock: 15.84%.
Result for N#CCc1cccc(C(=O)N2CCN(CC(O)c3ccccc3)CC2)c1 (stereo not given) was Mtb heat-shock: -5.08%.
Result for CCc1cc(C(=O)N[C@@H]2CC[C@@H](N3CCOCC3)[C@@H]2O)no1 was Mtb growth Cornell: 3.388%; Mtb heat-shock: -2.118%.
Result for CNC(=O)Cc1nc(CNc2ccc(SC)c(F)c2)cs1 was Mtb growth Cornell: 19.08%; Mtb heat-shock: 14.08%.
Result for Cc1cc(C2CCC2)nc(N2CC(n3cccn3)C2)n1 was Mtb heat-shock: -28.96%.
Result for CN(C)c1nccc(C2CN(C(=O)CO)C2)n1 was Mtb growth Cornell: -57.65%; Mtb heat-shock: -0.8284%.
Result for CN(Cc1ccco1)Cc1ccccc1CNC(=O)c1cc[nH]n1 was Mtb heat-shock: 3.687%.
Result for O=C(O)C(F)(F)F.[H][C@@]12COC[C@]1(CNS(C)(=O)=O)CN(Cc1cc(C)on1)C2 was Mtb growth Cornell: 2.936%; Mtb heat-shock: 4.61%.
Result for Cc1ccc(C(=O)N2CC3(CCNCC3)c3cc(Cl)ccc32)cn1.O=C(O)C(F)(F)F.O=C(O)C(F)(F)F was Mtb growth Cornell: 9.937%; Mtb heat-shock: 1.032%.
Result for CS(=O)(=O)NC1CCCN(C(=O)Nc2cccnc2)C1 (stereo not given) was Mtb heat-shock: -22.09%.
Result for O=C(Cn1c(=O)oc2ccccc21)NCC(O)c1ccc2c(c1)CCO2 (stereo not given) was Mtb growth Cornell: -10.27%; Mtb heat-shock: -3.535%.
Result for COC1(CNC(=O)CCCc2ccccc2)CCSC1 (stereo not given) was Mtb growth Cornell: -5.448%; Mtb heat-shock: -13.09%.
Result for Cc1cccc(CN2CCCC3(CCN(c4cccnc4)C3=O)C2)n1 (stereo not given) was Mtb growth Cornell: 20.08%; Mtb heat-shock: -16.66%.
Result for Cc1[nH]ccc1C(=O)N1CCC(c2nnc(Cn3cccn3)n2C)CC1 was Mtb growth Cornell: 32.52%; Mtb heat-shock: -6.757%.
Result for COc1cc(NC2CCN(C3CCS(=O)(=O)CC3)CC2)ncn1 was Mtb growth Cornell: 8.274%; Mtb heat-shock: -2.101%.
Result for O=C(O)C(F)(F)F.O=C(O)C(F)(F)F.O=C1CC[C@]2(CC[C@@H](NCc3cccnc3)CC2)N1Cc1ccccc1 was Mtb growth Cornell: 10.86%; Mtb heat-shock: -11.79%.
Result for O=C(NC1CC1)[C@H]1CN(Cc2ccccc2)C[C@@H]1C(=O)c1ccccc1 was Mtb growth Cornell: 30.86%; Mtb heat-shock: -1.172%.
Result for Cn1cc(CNC2CCS(=O)(=O)C2)c(-c2cc3ccccc3o2)n1 (stereo not given) was Mtb growth Cornell: 26.09%; Mtb heat-shock: -24.38%.
Result for [H][C@@]12CN(C(=O)C3CC=CC3)C[C@]1([H])C(=O)N(CCN(C)C)C2 was Mtb growth Cornell: 17.87%; Mtb heat-shock: -1.851%.
Result for CS(=O)(=O)NC[C@H]1Cn2c(-c3ccc4c(c3)OCCO4)cnc2CO1 was Mtb growth Cornell: 7.448%; Mtb heat-shock: -51.34%.
Result for NC(=O)[C@@H]1Cc2ccccc2CN1CCC(=O)N1CCOCC1 was Mtb heat-shock: -111.9%.
Result for COCC(O)CNC(=O)c1coc(COc2cccc(F)c2)n1 (stereo not given) was Mtb growth Cornell: 3.873%; Mtb heat-shock: 8.517%.
Result for COCCNC(=O)c1nnc2ccc(N3CCOCC3)cc2n1 was Mtb heat-shock: -5.392%.
Result for Cc1cc(N(C)Cc2noc(C)n2)n2nc(C)c(C)c2n1 was Mtb growth Cornell: 8.301%; Mtb heat-shock: 0.3178%.

The first 4 entries again:

Compound	Mtb growth Cornell	Mtb heat-shock
CCCc1nc(C)c(C(=O)NCCNc2ncccc2C#N)s1	-	-2.505%
Cc1nccc(N2C[C@@H](CN3CCCC3)[C@@H](CO)C2)n1	-	-1.633%
CN(Cc1n[nH]c2c1CCCCC2)C(=O)c1cc(-c2cccn2C)n[nH]1	48.35%	32.7%
c1ccc(-c2cc(CN3CCCC(Cn4cncn4)C3)on2)cc1 (stereo not given)	-	-1.952%